From patent US20110301099A1, “Method for enhancing penetration of lipid insoluble medicaments through cell membranes using small S-Allyl-containing molecules with phospholipid permeability as carrier molecules” (priority 2010, published 2011)

Settings: same patient, control sites not previously treated with Allium sativum/1% xylocaine extract

SMILES: CCN(CC)CC(=O)Nc1c(C)cccc1C [1% xylocaine, xylocaine]
- pain and discomfort on subcutaneous injection: produced pain and discomfort
